Source: the supplement of paper PMC10849652
The list shows a part of the results.

Sequences of proteins named here, by UniProt entry; tags and fusion partners are left off. A change or cut given only in a name is not applied to a line headed by its entry.
UniProt Q8IWA4: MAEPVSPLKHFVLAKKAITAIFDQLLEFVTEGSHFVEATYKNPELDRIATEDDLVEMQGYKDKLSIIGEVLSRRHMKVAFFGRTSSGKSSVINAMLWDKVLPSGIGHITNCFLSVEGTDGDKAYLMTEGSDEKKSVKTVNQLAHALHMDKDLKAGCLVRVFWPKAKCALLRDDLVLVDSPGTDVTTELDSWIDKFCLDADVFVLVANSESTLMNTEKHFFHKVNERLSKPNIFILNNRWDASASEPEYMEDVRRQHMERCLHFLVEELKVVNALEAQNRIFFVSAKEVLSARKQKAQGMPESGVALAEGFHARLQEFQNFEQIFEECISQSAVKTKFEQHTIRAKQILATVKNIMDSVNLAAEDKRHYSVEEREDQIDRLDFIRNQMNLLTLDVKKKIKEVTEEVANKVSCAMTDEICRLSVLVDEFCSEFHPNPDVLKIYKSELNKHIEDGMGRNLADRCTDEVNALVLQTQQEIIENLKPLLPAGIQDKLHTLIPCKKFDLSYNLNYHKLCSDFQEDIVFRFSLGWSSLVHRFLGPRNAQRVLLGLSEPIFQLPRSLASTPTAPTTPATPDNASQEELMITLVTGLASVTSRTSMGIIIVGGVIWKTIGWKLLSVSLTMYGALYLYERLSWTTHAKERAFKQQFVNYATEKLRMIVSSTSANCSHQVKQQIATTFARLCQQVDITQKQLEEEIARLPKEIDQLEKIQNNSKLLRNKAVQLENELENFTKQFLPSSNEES
UniProt O43513: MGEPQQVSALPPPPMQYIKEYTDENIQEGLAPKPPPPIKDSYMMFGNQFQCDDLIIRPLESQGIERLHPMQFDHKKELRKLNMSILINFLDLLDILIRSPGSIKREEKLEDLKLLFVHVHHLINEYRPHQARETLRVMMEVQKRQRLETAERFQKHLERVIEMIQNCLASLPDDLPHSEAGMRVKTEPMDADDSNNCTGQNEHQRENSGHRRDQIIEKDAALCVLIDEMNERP
UniProt Q6P2C8: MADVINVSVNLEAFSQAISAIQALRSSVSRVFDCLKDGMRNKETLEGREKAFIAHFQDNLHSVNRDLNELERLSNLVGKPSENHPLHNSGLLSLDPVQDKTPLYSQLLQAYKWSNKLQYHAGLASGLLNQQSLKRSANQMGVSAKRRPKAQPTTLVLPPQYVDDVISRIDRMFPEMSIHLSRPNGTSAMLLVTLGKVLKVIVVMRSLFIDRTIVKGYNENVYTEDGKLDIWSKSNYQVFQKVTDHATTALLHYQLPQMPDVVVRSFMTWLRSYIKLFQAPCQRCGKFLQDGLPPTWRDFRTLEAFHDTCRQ
UniProt Q96PE7: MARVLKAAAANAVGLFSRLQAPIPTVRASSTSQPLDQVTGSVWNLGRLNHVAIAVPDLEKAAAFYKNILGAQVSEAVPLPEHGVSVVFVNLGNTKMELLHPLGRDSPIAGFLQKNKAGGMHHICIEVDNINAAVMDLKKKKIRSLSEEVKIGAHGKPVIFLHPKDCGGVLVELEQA
UniProt Q02078: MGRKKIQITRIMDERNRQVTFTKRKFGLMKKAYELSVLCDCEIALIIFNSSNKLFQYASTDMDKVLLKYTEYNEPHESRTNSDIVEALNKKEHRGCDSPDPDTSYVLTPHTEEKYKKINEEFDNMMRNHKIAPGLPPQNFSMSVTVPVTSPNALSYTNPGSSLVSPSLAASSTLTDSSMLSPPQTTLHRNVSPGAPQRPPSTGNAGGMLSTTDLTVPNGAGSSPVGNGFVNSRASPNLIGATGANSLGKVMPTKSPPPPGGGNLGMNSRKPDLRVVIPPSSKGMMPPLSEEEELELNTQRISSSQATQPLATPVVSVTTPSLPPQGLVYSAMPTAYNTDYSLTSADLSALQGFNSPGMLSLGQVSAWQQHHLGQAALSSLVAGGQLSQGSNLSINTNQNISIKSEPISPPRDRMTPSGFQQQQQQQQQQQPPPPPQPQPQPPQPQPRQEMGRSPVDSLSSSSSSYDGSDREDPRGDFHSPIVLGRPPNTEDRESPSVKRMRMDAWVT
UniProt P55081: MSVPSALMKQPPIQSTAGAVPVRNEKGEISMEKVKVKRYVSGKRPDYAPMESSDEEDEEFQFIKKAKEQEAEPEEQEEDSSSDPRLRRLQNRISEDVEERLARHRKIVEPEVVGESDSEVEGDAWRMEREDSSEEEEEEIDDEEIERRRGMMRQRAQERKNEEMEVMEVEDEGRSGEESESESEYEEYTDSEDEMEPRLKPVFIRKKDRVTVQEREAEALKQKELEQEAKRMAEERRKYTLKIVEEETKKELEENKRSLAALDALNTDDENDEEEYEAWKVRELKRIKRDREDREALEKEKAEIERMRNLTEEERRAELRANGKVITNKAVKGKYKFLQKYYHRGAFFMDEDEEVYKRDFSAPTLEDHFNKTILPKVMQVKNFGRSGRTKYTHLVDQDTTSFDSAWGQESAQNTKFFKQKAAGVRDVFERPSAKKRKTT
UniProt P33991: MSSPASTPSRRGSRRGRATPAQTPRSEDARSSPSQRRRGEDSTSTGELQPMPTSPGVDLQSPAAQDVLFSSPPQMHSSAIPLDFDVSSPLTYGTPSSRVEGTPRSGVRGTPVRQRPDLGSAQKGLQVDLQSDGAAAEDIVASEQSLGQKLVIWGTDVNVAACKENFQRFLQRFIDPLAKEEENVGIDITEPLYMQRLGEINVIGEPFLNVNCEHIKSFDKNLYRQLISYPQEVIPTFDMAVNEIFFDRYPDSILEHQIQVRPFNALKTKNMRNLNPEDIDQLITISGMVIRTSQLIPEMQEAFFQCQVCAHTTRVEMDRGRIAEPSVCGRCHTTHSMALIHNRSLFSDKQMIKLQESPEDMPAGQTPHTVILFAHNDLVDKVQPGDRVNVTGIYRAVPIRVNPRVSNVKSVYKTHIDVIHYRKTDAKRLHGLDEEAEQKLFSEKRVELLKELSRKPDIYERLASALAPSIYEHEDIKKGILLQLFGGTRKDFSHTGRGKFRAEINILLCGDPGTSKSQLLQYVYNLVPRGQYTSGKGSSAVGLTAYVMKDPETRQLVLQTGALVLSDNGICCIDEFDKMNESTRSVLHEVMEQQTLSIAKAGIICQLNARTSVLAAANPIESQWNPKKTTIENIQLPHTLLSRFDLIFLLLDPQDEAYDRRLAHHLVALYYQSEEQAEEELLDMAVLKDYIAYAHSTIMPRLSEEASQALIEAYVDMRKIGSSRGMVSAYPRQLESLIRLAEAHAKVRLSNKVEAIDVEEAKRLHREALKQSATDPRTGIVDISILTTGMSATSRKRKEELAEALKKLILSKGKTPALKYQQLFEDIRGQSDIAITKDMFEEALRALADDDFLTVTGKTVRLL
UniProt Q8NE86: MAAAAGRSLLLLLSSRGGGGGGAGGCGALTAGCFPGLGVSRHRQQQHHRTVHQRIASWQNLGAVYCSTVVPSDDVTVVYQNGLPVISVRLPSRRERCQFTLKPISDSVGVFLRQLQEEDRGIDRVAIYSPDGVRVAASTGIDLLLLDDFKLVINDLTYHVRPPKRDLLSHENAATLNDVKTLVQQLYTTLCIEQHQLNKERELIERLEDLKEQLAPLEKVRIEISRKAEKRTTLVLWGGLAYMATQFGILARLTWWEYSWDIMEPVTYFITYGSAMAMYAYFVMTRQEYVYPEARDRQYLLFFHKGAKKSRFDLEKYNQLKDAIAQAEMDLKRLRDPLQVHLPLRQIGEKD
UniProt Q8NI22: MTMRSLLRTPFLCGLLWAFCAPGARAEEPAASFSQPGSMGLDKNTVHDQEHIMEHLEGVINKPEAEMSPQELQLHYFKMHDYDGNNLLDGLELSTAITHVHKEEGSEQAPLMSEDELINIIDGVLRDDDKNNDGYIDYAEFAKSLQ
UniProt C9JP00: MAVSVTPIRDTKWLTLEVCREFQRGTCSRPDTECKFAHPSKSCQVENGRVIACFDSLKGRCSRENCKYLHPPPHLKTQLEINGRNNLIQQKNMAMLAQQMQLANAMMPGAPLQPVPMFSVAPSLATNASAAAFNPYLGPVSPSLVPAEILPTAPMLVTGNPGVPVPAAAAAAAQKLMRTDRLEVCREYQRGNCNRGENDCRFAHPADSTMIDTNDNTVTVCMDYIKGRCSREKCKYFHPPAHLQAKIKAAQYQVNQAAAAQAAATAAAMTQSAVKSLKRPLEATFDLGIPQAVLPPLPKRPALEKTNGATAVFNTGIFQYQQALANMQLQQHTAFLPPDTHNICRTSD
UniProt P51608, whole entry, looked up: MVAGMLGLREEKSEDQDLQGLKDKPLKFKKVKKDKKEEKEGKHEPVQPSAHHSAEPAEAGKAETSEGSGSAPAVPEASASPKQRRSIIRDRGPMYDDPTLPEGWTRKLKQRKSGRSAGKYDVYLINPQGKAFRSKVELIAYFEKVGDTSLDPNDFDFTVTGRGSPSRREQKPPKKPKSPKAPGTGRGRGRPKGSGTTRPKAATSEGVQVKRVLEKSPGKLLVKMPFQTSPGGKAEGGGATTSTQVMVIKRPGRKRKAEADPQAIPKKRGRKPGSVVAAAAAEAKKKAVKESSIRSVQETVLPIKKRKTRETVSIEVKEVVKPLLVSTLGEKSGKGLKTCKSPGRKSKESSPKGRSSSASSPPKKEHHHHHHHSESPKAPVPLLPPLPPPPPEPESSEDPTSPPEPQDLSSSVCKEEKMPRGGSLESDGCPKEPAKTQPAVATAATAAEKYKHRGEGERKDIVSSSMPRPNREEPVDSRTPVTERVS
UniProt Q12866: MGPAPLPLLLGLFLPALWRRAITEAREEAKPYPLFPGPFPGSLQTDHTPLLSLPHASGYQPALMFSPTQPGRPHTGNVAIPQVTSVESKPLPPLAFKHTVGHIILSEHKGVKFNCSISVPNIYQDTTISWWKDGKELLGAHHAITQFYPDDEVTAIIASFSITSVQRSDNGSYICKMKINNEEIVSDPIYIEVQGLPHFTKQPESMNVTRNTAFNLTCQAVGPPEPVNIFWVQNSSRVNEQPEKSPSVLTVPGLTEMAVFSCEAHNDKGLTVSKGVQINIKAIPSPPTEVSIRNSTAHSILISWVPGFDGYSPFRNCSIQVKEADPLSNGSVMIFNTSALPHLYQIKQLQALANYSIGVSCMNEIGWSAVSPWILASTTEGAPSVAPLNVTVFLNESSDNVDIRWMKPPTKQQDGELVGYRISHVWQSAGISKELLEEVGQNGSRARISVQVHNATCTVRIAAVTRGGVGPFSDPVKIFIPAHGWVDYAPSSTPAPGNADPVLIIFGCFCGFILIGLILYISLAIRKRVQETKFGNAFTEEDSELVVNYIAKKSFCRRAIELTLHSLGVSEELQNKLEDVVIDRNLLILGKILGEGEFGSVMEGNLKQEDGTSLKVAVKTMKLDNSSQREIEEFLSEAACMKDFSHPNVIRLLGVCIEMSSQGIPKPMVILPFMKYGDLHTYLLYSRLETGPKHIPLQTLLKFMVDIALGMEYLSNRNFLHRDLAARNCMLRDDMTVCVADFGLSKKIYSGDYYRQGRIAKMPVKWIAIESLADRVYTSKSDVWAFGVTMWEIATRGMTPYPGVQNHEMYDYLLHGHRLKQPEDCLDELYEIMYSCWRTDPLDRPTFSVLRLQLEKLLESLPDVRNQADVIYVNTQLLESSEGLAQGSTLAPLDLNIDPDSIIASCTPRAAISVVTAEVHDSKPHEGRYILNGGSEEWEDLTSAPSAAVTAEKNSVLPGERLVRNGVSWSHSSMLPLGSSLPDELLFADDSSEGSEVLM
UniProt Q8IVS2: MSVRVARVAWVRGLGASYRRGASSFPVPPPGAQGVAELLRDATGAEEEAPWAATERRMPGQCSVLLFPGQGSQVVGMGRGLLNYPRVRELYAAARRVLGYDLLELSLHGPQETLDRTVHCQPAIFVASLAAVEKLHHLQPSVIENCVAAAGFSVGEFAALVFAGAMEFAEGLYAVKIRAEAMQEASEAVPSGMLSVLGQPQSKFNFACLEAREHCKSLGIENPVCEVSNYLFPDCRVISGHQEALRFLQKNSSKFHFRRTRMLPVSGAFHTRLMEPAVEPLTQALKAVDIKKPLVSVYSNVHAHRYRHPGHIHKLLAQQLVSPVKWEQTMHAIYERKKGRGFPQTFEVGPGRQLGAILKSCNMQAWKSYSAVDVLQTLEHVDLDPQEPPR
UniProt Q9GZU1, whole entry, looked up: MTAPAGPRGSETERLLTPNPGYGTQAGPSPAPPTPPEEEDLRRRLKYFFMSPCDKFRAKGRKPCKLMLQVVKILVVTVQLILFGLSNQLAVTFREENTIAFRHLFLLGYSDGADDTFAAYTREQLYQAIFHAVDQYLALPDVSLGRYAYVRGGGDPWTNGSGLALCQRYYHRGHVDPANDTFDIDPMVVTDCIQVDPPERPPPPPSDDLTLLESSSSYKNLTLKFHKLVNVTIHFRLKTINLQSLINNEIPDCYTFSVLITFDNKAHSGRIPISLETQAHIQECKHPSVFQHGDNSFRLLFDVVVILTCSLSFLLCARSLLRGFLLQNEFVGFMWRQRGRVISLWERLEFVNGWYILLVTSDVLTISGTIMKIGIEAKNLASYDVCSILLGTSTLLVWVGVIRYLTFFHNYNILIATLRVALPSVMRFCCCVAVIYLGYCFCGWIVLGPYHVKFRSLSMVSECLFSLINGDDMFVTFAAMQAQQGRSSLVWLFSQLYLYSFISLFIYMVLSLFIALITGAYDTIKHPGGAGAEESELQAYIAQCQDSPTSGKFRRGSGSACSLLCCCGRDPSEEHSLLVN

What was measured:
Test in all cases: log2 fold change, soluble protein after heating vs DMSO (PISA); higher = thermal stabilisation; K562 lysate, 10 uM; active = over 0.2 and 3.5 SD of the protein, either way, in both replicates (recomputed)
lapatinib = compound: CS(=O)(=O)CCNCc1ccc(-c2ccc3ncnc(Nc4ccc(OCc5cccc(F)c5)c(Cl)c4)c3c2)o1 [lapatinib]
Method in brief: (§1)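 A 30 min treatment with 10 μM compound was applied to crude K562 extract at 1 mg/mL protein in PBS pH 7.4 with 1 mM MgCl2. Heating for 3 min spanned 48°C-58°C, after which aliquots were pooled, adjusted to 0.5% NP-40 at 4°C and spun at 21,000xg for 90 min. TMTpro 16plex LC-MS/MS of the supernatant, with channel sums equalised, gave values recorded as log-two fold change in thermal stability against solvent controls, from duplicates.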

pictilisib = compound: CS(=O)(=O)N1CCN(Cc2cc3nc(-c4cccc5[nH]ncc45)nc(N4CCOCC4)c3s2)CC1 [pictilisib]
Method in brief: as §1

crizotinib = compound: C[C@@H](Oc1cc(-c2cnn(C3CCNCC3)c2)cnc1N)c1c(Cl)ccc(F)c1Cl [crizotinib]
Method in brief: as §1

[1] = compound: C[C@H](C1=CC=C(C=C1)C(=O)NC2=C3C=CNC3=NC=C2)N
Method in brief: as §1

duvelisib = compound: C[C@H](Nc1ncnc2nc[nH]c12)c1cc2cccc(Cl)c2c(=O)n1-c1ccccc1 [duvelisib]
Method in brief: as §1

gandotinib = compound: Cc1cc(Nc2cc(CN3CCOCC3)c3nc(C)c(Cc4ccc(Cl)cc4F)n3n2)n[nH]1 [gandotinib]
Method in brief: as §1

tozasertib = compound: Cc1cc(Nc2cc(N3CCN(C)CC3)nc(Sc3ccc(NC(=O)C4CC4)cc3)n2)n[nH]1 [tozasertib]
Method in brief: as §1

doramapimod = compound: Cc1ccc(-n2nc(C(C)(C)C)cc2NC(=O)Nc2ccc(OCCN3CCOCC3)c3ccccc23)cc1 [doramapimod]
Method in brief: as §1

bafetinib = compound: Cc1ccc(NC(=O)c2ccc(CN3CC[C@H](N(C)C)C3)c(C(F)(F)F)c2)cc1Nc1nccc(-c2cncnc2)n1 [bafetinib]
Method in brief: as §1

[2] = compound: Cc1cccc(CC(=O)N2CCc3c2ccc(-c2cn(C)c4ncnc(N)c24)c3F)n1
Method in brief: as §1

Measured: log2 fold change

MFN1 (UniProt Q8IWA4)
inactive: lapatinib -0.113 | pictilisib -0.036 | crizotinib -0.07 | [1] -0.212 | duvelisib 0.013 | gandotinib 0.009 | tozasertib -0.068 | doramapimod 0.024 | bafetinib -0.07 | [2] 0.037

MED7 (UniProt O43513)
inactive: lapatinib 0.039 | pictilisib 0.08 | crizotinib 0.04 | [1] 0.025 | duvelisib -0.02 | gandotinib 0.038 | tozasertib -0.17 | doramapimod 0.033 | bafetinib -0.106 | [2] -0.066

METTL5 (UniProt Q9NRN9)
inactive: lapatinib -0.005 | pictilisib 0.085 | crizotinib 0.02 | [1] 0.064 | duvelisib 0.006 | gandotinib 0.021 | tozasertib -0.014 | doramapimod 0.032 | bafetinib 0.018 | [2] -0.028

MBLAC2 (UniProt Q68D91)
inactive: lapatinib -0.012 | pictilisib -0.008 | crizotinib 0.025 | [1] -0.027 | duvelisib 0.038 | gandotinib 0.036 | tozasertib 0.084 | doramapimod 0.033 | bafetinib -0.049 | [2] 0.006

MFF isoform 2 (UniProt Q9GZY8)
inactive: lapatinib 0.055 | pictilisib 0.028 | crizotinib 0 | duvelisib 0.022 | gandotinib 0.106 | tozasertib -0.031 | doramapimod -0.035 | bafetinib -0.031 | [2] 0.24
active: [1] -0.239

MCCC2 (UniProt Q9HCC0)
inactive: lapatinib 0 | pictilisib -0.03 | crizotinib 0.02 | [1] -0.011 | duvelisib 0.006 | gandotinib 0.019 | tozasertib -0.013 | doramapimod -0.023 | bafetinib 0.024 | [2] -0.016

MED27 (UniProt Q6P2C8)
inactive: lapatinib 0.012 | pictilisib 0.057 | crizotinib -0.022 | [1] 0.042 | duvelisib 0.026 | gandotinib 0.006 | tozasertib -0.038 | doramapimod 0.068 | bafetinib -0.081 | [2] -0.024

MCEE (UniProt Q96PE7)
inactive: lapatinib 0.09 | pictilisib 0.095 | crizotinib 0.067 | [1] -0.017 | duvelisib 0.153 | gandotinib -0.04 | tozasertib 0.071 | doramapimod -0.033 | bafetinib -0.051 | [2] 0.028

MED4 (UniProt Q9NPJ6)
inactive: lapatinib 0.027 | pictilisib -0.002 | crizotinib 0.001 | [1] -0.043 | duvelisib 0.018 | gandotinib 0.066 | tozasertib 0.024 | doramapimod -0.036 | bafetinib -0.009 | [2] 0.02

MEF2A (UniProt Q02078)
inactive: lapatinib -0.191 | pictilisib -0.09 | crizotinib -0.028 | [1] -0.181 | duvelisib 0.094 | gandotinib 0.096 | tozasertib -0.039 | doramapimod 0.022 | bafetinib -0.071 | [2] 0.068

MBD2 (UniProt Q9UBB5)
inactive: lapatinib -0.009 | pictilisib 0.017 | crizotinib 0.006 | [1] -0.035 | duvelisib 0.02 | gandotinib -0.004 | tozasertib 0.029 | doramapimod 0.045 | bafetinib -0.006 | [2] -0.032

MCTS1 isoform 3 (UniProt Q9ULC4)
inactive: lapatinib 0.005 | pictilisib -0.01 | crizotinib 0.071 | [1] 0.097 | duvelisib -0.008 | gandotinib -0.002 | tozasertib 0.024 | doramapimod -0.007 | bafetinib -0.007 | [2] -0.039

MFAP1 (UniProt P55081)
inactive: lapatinib 0.021 | pictilisib 0.037 | crizotinib 0.079 | [1] -0.048 | duvelisib -0.028 | gandotinib 0.017 | tozasertib -0.031 | doramapimod -0.135 | bafetinib -0.033 | [2] 0.014

MEX3D isoform 3 (UniProt Q86XN8)
inactive: lapatinib -0.018 | pictilisib -0.055 | crizotinib -0.024 | [1] -0.007 | duvelisib -0.145 | gandotinib -0.002 | tozasertib -0.182 | doramapimod 0.071 | bafetinib 0.113 | [2] 0.03

MCM4 (UniProt P33991)
inactive: lapatinib -0.018 | pictilisib 0.02 | crizotinib -0.037 | [1] 0.029 | duvelisib 0.008 | gandotinib -0.084 | tozasertib -0.008 | doramapimod 0.045 | bafetinib -0.066 | [2] -0.006

MCU (UniProt Q8NE86)
active: gandotinib -0.311
inactive: lapatinib -0.145 | pictilisib -0.041 | crizotinib -0.125 | [1] -0.03 | duvelisib 0.037 | tozasertib -0.02 | doramapimod 0.085 | bafetinib -0.108 | [2] 0.032

MCFD2 (UniProt Q8NI22)
inactive: lapatinib 0.136 | pictilisib -0.01 | crizotinib 0.115 | [1] 0.152 | duvelisib 0.045 | gandotinib -0.126 | tozasertib -0.019 | doramapimod -0.067 | bafetinib 0.132 | [2] -0.076

MBNL1 (UniProt C9JP00)
inactive: lapatinib 0.029 | pictilisib -0.089 | crizotinib 0.037 | [1] 0.015 | duvelisib -0.056 | gandotinib -0.047 | tozasertib 0.027 | doramapimod -0.015 | bafetinib 0.06 | [2] -0.019

Taken from above (five entries):
MFAP1 (UniProt P55081)
inactive: lapatinib 0.021 | pictilisib 0.037 | crizotinib 0.079 | [1] -0.048 | duvelisib -0.028 | gandotinib 0.017 | tozasertib -0.031 | doramapimod -0.135 | bafetinib -0.033 | [2] 0.014

MEX3D isoform 3 (UniProt Q86XN8)
inactive: lapatinib -0.018 | pictilisib -0.055 | crizotinib -0.024 | [1] -0.007 | duvelisib -0.145 | gandotinib -0.002 | tozasertib -0.182 | doramapimod 0.071 | bafetinib 0.113 | [2] 0.03

MCM4 (UniProt P33991)
inactive: lapatinib -0.018 | pictilisib 0.02 | crizotinib -0.037 | [1] 0.029 | duvelisib 0.008 | gandotinib -0.084 | tozasertib -0.008 | doramapimod 0.045 | bafetinib -0.066 | [2] -0.006

MCU (UniProt Q8NE86)
active: gandotinib -0.311
inactive: lapatinib -0.145 | pictilisib -0.041 | crizotinib -0.125 | [1] -0.03 | duvelisib 0.037 | tozasertib -0.02 | doramapimod 0.085 | bafetinib -0.108 | [2] 0.032

MCFD2 (UniProt Q8NI22)
inactive: lapatinib 0.136 | pictilisib -0.01 | crizotinib 0.115 | [1] 0.152 | duvelisib 0.045 | gandotinib -0.126 | tozasertib -0.019 | doramapimod -0.067 | bafetinib 0.132 | [2] -0.076

(next part)

MEAF6 isoform 3 (UniProt Q9HAF1)
inactive: lapatinib 0.054 | pictilisib 0.022 | crizotinib -0.053 | [1] -0.131 | duvelisib -0.021 | gandotinib 0.09 | tozasertib -0.049 | doramapimod 0.117 | bafetinib 0.013 | [2] 0.039

MECP2 isoform 2 (UniProt P51608)
inactive: lapatinib 0.033 | pictilisib 0.033 | crizotinib 0.008 | [1] -0.192 | duvelisib -0.01 | gandotinib 0.026 | tozasertib -0.003 | doramapimod -0.017 | bafetinib 0.032 | [2] 0.045

MAU2 (UniProt Q9Y6X3)
inactive: lapatinib -0.018 | pictilisib -0.025 | crizotinib -0.033 | [1] 0.055 | gandotinib -0.068 | tozasertib -0.003 | doramapimod 0.062 | bafetinib 0.001 | [2] -0.056

MEF2A isoform 2 (UniProt Q02078)
inactive: lapatinib 0.077 | pictilisib -0.01 | crizotinib 0.017 | [1] 0.001 | gandotinib 0.027 | doramapimod 0.143 | bafetinib -0.033 | [2] 0.08

METTL21A (UniProt Q8WXB1)
inactive: lapatinib 0.004 | pictilisib 0.06 | crizotinib -0.043 | [1] -0.083 | duvelisib 0.131 | gandotinib 0.038 | doramapimod -0.081 | bafetinib -0.04 | [2] 0.016

MFSD11 (UniProt O43934)
inactive: lapatinib 0.038 | pictilisib 0.01 | [1] -0.158 | gandotinib 0.065 | bafetinib -0.047 | [2] 0.001

MED19 (UniProt A0JLT2)
inactive: lapatinib 0.026 | pictilisib -0.153 | crizotinib -0.009 | [1] 0.019 | duvelisib -0.041 | gandotinib -0.039 | doramapimod 0.02 | bafetinib -0.549 | [2] -0.127

MERTK (UniProt Q12866)
inactive: lapatinib 0.084 | pictilisib -0.126 | crizotinib 0.05 | [1] 0.342 | duvelisib 0.009 | gandotinib -0.268 | tozasertib 0.055 | bafetinib 0.044 | [2] -0.206

MCAT (UniProt Q8IVS2)
inactive: lapatinib -0.077 | pictilisib -0.053 | crizotinib 0.011 | [1] -0.063 | duvelisib 0.018 | gandotinib 0.07 | tozasertib 0.001 | doramapimod 0.007 | bafetinib -0.012 | [2] -0.01

MCOLN1 (UniProt Q9GZU1)
inactive: lapatinib -0.019 | pictilisib -0.053 | crizotinib -0.005 | [1] -0.204 | duvelisib 0.04 | gandotinib 0.075 | doramapimod 0.062 | bafetinib 0.127 | [2] 0.06

MBOAT1 (UniProt Q6ZNC8)
inactive: lapatinib -0.502 | pictilisib 0.033 | crizotinib -0.069 | tozasertib -0.014 | doramapimod -0.099 | bafetinib 0.123
